Test results taken from the supplement of paper PMC12823440, “Inhibitors supercharge kinase turnover through native proteolytic circuits” (Nature, 2025).
Some of the results follow. The calls rarely recur for the same compound in another form.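 In K562 cells expressing nanoluciferase-fused kinases, luminescence was recorded at 4 h intervals between 2 and 18 h, normalized as percent of control with DMSO at 100% and a positive control at 0%. A significant (2 sigma) signal drop marks a time point as decreased. The authors' rule for a hit is not shown and takes in more than the number of time points.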

By UniProt entry, the sequences of proteins in these tests, tags left out. Where a name states a change or a piece, a line headed by the entry shows the natural chain unless it says otherwise.
UniProt O15530: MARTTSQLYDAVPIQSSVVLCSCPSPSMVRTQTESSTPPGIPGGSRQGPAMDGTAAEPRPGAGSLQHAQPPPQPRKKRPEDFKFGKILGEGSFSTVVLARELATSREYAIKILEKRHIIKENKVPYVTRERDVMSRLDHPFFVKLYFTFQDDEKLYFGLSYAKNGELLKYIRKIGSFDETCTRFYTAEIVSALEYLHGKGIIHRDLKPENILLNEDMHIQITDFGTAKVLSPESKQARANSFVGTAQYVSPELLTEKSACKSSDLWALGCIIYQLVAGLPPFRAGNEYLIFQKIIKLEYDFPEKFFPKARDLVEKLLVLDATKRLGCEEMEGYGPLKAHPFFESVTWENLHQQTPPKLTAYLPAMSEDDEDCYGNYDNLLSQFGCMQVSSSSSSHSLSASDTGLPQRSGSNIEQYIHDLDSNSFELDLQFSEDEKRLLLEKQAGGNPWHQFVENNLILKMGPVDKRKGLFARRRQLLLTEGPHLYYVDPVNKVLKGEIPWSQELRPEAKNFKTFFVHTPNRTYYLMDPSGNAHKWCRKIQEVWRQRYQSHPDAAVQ
UniProt P42356, whole entry, looked up: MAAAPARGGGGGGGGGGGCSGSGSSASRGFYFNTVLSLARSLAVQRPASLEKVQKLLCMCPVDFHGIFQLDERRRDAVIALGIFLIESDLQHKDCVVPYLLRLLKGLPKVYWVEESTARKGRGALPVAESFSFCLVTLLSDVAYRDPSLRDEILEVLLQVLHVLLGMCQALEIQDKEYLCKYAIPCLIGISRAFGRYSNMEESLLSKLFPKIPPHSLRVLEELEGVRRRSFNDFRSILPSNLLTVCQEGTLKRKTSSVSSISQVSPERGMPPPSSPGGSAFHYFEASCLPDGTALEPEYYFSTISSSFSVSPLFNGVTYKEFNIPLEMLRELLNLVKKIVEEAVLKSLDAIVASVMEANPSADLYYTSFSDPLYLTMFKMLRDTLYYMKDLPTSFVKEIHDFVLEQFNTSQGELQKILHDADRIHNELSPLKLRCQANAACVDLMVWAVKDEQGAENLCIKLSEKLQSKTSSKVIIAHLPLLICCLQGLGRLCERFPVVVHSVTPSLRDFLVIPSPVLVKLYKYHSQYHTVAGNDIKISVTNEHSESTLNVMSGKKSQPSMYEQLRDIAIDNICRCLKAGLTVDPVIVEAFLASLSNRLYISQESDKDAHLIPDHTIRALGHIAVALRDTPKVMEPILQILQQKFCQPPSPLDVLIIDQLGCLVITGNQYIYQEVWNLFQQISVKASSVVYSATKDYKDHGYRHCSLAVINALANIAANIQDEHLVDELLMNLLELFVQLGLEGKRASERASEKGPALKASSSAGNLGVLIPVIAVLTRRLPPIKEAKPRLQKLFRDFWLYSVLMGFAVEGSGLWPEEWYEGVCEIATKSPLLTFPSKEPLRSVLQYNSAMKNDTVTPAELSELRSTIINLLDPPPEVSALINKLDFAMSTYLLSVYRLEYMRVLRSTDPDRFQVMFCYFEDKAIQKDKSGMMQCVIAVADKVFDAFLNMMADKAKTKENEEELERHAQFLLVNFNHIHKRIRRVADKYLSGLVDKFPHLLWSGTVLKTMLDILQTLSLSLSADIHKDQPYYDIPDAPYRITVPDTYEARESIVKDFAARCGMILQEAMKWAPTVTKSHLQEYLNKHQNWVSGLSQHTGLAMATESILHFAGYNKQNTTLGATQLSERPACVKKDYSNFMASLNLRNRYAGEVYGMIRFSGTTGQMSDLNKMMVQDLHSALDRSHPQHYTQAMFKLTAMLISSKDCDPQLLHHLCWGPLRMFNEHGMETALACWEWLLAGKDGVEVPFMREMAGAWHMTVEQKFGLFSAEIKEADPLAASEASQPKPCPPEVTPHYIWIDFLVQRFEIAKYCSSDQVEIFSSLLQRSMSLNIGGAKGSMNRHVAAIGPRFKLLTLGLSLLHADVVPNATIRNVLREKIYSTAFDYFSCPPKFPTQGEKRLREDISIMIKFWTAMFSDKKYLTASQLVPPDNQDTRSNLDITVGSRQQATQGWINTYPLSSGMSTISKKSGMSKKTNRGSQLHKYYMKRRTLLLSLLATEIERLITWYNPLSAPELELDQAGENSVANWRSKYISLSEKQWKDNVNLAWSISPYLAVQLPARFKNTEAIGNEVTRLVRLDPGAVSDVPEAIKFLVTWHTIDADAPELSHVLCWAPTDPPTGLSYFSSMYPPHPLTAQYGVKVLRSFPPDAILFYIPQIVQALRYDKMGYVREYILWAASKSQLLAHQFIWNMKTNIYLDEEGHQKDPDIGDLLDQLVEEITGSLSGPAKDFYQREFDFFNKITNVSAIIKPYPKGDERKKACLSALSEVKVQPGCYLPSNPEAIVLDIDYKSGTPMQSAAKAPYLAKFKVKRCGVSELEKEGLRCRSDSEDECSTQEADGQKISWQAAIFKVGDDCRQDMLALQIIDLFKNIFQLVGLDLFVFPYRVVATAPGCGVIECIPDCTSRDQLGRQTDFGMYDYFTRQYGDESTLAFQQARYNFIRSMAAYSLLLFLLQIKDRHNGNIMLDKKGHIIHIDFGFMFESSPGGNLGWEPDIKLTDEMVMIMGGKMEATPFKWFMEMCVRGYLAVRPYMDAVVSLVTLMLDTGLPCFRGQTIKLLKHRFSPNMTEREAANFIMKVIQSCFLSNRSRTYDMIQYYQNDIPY
UniProt Q9UBF8: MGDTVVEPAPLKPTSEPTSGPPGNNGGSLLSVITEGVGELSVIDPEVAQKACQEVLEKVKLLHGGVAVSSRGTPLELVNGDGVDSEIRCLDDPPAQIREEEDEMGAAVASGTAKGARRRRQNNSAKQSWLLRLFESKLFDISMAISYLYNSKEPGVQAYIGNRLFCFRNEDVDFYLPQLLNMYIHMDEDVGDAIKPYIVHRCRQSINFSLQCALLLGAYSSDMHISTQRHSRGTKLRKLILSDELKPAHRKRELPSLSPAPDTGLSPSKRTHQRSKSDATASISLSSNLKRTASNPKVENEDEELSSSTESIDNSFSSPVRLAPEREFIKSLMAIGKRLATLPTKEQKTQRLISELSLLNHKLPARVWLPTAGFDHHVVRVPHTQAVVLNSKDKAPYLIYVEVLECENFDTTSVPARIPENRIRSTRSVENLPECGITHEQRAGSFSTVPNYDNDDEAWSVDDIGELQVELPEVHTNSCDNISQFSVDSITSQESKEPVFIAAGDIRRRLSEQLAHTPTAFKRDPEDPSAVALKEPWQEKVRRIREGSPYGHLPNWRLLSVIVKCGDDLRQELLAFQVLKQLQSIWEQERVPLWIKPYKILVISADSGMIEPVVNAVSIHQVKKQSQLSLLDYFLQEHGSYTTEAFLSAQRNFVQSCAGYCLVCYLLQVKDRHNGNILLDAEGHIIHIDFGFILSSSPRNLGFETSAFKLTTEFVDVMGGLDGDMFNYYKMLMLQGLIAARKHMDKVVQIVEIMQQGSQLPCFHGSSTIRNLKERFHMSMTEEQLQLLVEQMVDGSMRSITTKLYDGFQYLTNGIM
UniProt P53350, whole entry: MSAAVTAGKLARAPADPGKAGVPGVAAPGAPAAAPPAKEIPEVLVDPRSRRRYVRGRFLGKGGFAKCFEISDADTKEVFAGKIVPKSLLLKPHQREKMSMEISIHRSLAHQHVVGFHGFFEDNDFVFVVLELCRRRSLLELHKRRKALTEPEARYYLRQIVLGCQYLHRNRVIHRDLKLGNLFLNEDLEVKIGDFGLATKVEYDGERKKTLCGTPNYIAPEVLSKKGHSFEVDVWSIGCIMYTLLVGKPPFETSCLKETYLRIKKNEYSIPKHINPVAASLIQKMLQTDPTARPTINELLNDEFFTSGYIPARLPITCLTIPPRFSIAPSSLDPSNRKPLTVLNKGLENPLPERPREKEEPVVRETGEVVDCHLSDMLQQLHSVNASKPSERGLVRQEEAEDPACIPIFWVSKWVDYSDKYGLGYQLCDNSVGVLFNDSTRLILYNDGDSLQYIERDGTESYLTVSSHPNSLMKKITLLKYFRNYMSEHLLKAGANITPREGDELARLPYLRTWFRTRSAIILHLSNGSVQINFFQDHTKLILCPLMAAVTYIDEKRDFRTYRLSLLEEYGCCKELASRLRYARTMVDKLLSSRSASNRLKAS
UniProt Q13131: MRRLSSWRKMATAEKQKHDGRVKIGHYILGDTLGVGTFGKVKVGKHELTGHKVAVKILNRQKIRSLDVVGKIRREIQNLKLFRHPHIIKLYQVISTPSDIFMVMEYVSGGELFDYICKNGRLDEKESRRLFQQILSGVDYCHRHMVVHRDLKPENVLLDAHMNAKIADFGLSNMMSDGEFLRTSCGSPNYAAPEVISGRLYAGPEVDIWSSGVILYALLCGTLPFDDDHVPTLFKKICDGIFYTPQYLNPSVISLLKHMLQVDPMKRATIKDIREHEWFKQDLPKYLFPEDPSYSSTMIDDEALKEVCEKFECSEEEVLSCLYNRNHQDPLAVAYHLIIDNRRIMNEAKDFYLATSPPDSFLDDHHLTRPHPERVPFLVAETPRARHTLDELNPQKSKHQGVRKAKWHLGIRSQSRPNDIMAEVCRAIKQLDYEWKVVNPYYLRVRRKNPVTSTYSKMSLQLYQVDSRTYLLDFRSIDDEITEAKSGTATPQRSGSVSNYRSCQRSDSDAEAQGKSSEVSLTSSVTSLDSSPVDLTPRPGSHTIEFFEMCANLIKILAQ
UniProt Q14289, whole entry, looked up: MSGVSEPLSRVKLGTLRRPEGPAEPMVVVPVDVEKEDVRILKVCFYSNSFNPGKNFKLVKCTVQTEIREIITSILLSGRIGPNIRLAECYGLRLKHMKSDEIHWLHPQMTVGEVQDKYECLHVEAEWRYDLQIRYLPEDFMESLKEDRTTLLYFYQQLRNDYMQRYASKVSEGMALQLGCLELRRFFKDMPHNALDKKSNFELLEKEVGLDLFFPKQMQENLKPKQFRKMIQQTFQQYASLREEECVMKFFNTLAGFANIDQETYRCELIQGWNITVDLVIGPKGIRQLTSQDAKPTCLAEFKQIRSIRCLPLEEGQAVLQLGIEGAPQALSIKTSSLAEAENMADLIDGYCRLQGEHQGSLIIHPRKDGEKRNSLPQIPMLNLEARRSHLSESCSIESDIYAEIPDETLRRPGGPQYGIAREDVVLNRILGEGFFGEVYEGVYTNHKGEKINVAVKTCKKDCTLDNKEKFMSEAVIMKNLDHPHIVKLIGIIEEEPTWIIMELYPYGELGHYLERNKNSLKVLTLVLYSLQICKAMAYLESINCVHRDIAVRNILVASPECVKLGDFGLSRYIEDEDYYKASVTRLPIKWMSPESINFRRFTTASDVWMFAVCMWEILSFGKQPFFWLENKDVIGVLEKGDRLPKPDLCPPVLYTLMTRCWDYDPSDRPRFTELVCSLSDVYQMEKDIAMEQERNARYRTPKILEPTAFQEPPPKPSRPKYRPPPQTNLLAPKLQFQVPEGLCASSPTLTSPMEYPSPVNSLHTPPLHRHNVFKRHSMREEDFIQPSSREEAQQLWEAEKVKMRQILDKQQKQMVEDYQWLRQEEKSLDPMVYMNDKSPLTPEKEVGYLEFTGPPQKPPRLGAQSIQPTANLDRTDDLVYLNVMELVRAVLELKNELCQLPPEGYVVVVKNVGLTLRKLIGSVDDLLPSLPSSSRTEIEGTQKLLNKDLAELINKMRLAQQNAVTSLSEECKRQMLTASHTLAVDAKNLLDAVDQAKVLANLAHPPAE

Columns and labels:
Test in all cases: kinase-Nluc reporter destabilization hit call (1 = scored as downregulated) (binary); higher = compound decreases kinase abundance
Settings in all cases: K562; 2-18 h
[1] = biological target: PDPK1 (UniProt O15530)
[2] = biological target: PIK4CA (UniProt P42356)
[3] = biological target: PIK4CB (UniProt Q9UBF8)
[4] = biological target: PLK1 (UniProt P53350)
[5] = biological target: PRKAA1 (UniProt Q13131)
[6] = biological target: PRKCA (UniProt P17252)
[7] = biological target: PTK2 (UniProt Q05397)
[8] = biological target: PTK2B (UniProt Q14289)
[9] = biological target: RAF1 (UniProt P04049)
[10] = biological target: RAF1_S257L (clone: RAF1_mut) (UniProt P04049)

Measured: kinase-Nluc reporter destabilization hit call

CCCn1/c(=N/C(=O)c2cccc(C(N)=O)c2)[nH]c2ccccc21 [Takinib] (10 µM)
inactive: [1] 0 | [2] 0 | [3] 0 | [4] 0 | [5] 0 | [6] 0 | [7] 0 | [8] 0 | [9] 0 | [10] 0

CO[C@H]1CC[C@H](N2C(=O)CNc3ncc(-c4ccc(C(C)(C)O)nc4)nc32)CC1 (2.5 µM)
inactive: [1] 0 | [2] 0 | [3] 0 | [4] 0 | [5] 0 | [6] 0 | [7] 0 | [8] 0 | [9] 0 | [10] 0

Cc1cc(C(=O)Nc2nc3cccc(Cl)c3n2[C@@H]2CCCCN(C(=O)/C=C/CN(C)C)C2)ccn1 [Nazartinib] (10 µM)
inactive: [1] 0 | [2] 0 | [3] 0 | [4] 0 | [5] 0 | [6] 0 | [7] 0 | [8] 0 | [9] 0 | [10] 0

CC(C)CCN1c2nc(Nc3cc(F)c(O)c(F)c3)ncc2N(C)C(=O)C1C (stereo not given) (2.5 µM)
inactive: [1] 0 | [2] 0 | [3] 0 | [4] 0 | [5] 0 | [6] 0 | [7] 0 | [8] 0 | [9] 0 | [10] 0

O=C(Nc1ccc(Cl)cc1)C1CCCN(C(=O)c2cc(C(F)(F)F)cc(C(F)(F)F)c2)C1 (stereo not given) (10 µM)
inactive: [1] 0 | [2] 0 | [3] 0 | [4] 0 | [5] 0 | [6] 0 | [7] 0 | [8] 0 | [9] 0 | [10] 0
